Source: patent US20060148746
For some assays here: Negatives hold for the conditions tested.

Chains of the proteins cited; added tags and fusions are not shown. Chains listed by the source or under a name are the forms on record and can include a tag or linker. Residues count along the entry.
UniProt P42260, 32-908: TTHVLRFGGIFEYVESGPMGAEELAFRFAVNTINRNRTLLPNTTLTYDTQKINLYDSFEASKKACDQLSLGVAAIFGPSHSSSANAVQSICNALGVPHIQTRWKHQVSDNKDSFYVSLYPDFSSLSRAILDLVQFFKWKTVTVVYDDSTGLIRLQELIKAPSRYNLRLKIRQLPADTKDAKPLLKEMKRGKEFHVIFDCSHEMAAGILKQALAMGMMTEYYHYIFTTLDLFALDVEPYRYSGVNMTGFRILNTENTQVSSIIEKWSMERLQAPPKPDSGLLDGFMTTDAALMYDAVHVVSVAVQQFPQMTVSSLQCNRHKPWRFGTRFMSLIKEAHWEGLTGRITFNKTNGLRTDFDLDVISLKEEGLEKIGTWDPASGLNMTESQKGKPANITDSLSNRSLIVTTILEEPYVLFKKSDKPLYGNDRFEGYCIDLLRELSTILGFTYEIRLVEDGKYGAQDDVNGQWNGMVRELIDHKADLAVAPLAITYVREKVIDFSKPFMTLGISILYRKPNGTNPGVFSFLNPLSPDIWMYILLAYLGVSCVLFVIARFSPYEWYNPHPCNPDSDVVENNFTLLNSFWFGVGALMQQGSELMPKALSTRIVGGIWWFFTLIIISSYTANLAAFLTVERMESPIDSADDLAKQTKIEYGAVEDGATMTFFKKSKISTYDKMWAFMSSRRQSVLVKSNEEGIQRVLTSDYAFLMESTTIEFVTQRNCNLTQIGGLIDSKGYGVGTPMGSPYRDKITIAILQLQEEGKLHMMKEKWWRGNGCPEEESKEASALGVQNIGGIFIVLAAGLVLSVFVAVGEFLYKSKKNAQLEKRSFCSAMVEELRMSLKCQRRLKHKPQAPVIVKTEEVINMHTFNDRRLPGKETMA
GluR4flip AMPA receptor (homomeric channel), one chain, as listed by the source: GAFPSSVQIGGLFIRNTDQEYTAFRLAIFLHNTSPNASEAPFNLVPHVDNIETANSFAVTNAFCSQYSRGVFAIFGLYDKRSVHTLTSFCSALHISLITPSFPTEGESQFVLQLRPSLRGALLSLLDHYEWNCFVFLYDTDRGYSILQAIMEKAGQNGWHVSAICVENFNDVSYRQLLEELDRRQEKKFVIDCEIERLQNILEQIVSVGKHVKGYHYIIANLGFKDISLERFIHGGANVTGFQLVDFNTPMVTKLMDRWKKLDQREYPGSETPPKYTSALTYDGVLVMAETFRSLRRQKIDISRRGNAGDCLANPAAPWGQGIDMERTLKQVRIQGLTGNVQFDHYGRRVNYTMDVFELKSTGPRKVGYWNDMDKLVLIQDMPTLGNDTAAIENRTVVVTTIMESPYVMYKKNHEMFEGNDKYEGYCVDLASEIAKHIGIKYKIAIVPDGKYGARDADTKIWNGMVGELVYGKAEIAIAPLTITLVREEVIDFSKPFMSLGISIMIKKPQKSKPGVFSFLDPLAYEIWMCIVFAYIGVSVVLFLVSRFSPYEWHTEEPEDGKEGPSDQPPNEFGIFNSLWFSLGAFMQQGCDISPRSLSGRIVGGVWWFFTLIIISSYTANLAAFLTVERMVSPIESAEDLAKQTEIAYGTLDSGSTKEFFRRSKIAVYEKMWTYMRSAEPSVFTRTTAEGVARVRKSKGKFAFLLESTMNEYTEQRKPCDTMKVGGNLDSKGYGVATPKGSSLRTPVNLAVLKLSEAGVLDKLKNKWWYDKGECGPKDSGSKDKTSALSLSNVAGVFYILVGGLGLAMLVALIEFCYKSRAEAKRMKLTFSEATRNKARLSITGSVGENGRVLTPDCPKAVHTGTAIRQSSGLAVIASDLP

Experiments:
[1] = target: GluR6Q kainate receptor (homomeric channel) (UniProt P42260); experiment: inhibition of the protein; conditions: no inhibition at concentration tested; protein on the cell surface; protein details: expressed in HEK-293S cells; variant of original 98-nt aptamer; dose not given here
[2] = system: GluR4flip AMPA receptor (homomeric channel); experiment: inhibition of the protein; conditions: both M1 and M2 required; improved specificity versus NBQX; protein on the cell surface; protein details: expressed in HEK-293S cells; variant of original 98-nt aptamer; dose not given here

Sequence: GGGCGAAUUCACUGCCAUCUAGGCAGUAACCAGGAGUUAGUAGGACAAGUUUCGUCC [AN57 (57-nt minimal aptamer, M1+M2 mixture)]
- functional effect of the aptamer [1]: not active
- functional effect of the aptamer [2]: active
